Results from publication PMC5346761.

Target: T1, CD99 (human (endogenous in LAP-35)) (UniProt P14209)
T1 sequence: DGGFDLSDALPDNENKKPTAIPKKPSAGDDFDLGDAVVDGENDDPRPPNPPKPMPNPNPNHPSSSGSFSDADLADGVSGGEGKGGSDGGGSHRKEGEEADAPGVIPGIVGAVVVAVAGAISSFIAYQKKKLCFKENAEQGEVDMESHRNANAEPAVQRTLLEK
Test: co-IP; endogenous IGF-1R, RAS and CD99 in LAP-35 cells, before and after treatment with 0662mAb; details only in Supplementary Materials and Methods

binding | Substance
binds | RAS (human (endogenous in LAP-35))
binds | insulin-like growth factor receptor 1 (IGF-1R) (human (endogenous in LAP-35))

Results are given in words; binding and its absence hold for the method and conditions named. Binding seen in cells or lysates may run through a third protein. A result given as binding can be weak or reduced; the word gives no strength.
